The values below come from publication PMC12160919.

Protein sequences, listed by entry. Tags and fused reporters are not part of them. Lines headed by an entry give the natural chain unless they say otherwise; changes in a name come on top. Residues count along the entry.
UniProt P31749: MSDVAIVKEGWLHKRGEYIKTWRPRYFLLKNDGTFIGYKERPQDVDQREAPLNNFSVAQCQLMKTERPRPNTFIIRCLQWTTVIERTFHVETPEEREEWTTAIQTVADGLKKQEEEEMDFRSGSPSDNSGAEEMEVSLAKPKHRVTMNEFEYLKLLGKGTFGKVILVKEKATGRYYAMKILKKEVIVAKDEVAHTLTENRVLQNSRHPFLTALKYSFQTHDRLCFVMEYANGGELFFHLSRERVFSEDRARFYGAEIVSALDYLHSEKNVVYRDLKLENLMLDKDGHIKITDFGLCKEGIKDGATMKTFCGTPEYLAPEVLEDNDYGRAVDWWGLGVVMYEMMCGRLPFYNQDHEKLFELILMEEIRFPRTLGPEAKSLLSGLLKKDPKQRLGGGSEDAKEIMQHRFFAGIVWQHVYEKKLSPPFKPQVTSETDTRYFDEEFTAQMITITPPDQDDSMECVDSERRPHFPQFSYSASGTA
AKT1 kinase domain-GFP (KD-GFP): residues 150-408 of P31749

These are yes or no findings as the source states them, for the method shown. In cells and extracts the contact can be indirect. Some entries that bind do so weakly or less than the wild type. Where a sequence is shown, tags or fusion partners need not be part of it.

In assay [1] the target is AKT1 kinase domain-GFP (KD-GFP) (UniProt P31749). Kind of assay: co-IP; HA-CYPJ and PH/KD/RD-GFP plasmids co-transfected into 293T cells; IP with anti-GFP antibody; Western blot.
The next assay deals with Flag-AKT1 (UniProt P31749). Kind of assay: co-IP; HA-CYPJ and Flag-AKT1/2 plasmids co-transfected into 293T cells; IP with anti-Flag on Protein A/G magnetic beads, overnight at 4 °C; Western blot. In general terms: Immunoblotting shows a protein as a band on a membrane.

B1: HA-CYPJ (cyclophilin J) (protein, UniProt Q9H2H8 1-161)
chain: MSVTLHTDVGDIKIEVFCERTPKTCENFLALCASNYYNGCIFHRNIKGFMVQTGDPTGTGRGGNSIWGKKFEDEYSEYLKHNVRGVVSMANNGPNTNGSQFFITYGKQPHLDMKYTVFGKVIDGLETLDELEKLPVNEKTYRPLNDVHIKDITIHANPFAQ
On to B1, for which the binding result (in assay [1]; in the assay with Flag-AKT1) was “binds” in each case.
